# Experimental data as given in article PMC5562876, “The integration of Gβ and MAPK signaling cascade in zygote development” (Scientific Reports, 2017).
# These are yes or no findings as the source states them, for the method shown. Binding can be weak; no strength is given. For some assays here: In cells and extracts the contact can be indirect. For some assays here: Tags and fused reporters may be left off the sequences shown.
# How the values were obtained:
# [1] = target: YDA-C-Tail-NLuc (Arabidopsis thaliana); assay: split reporter; firefly luciferase complementation imaging; 35S-driven nLUC and cLUC constructs co-infiltrated by agrobacterium GV3101 into N. benthamiana leaves, 3 days at 22 °C, CCD imaging
# [2] = target: YDA-N-Tail-nLUC (Arabidopsis thaliana); assay: as above
# [3] = target: N-Tail of YODA (purified, pull-down) (Arabidopsis thaliana); assay: pull-down; purified fusion proteins from E. coli incubated with glutathione agarose beads, 25 mM Tris-HCl pH 7.5, 100 mM NaCl, 1 mM DTT, 1 hr; seven washes with 0.1% Triton X-100; eluted with 15 mM GSH; immunoblot; both purified
# [4] = target: C-Tail of YODA (purified, pull-down) (Arabidopsis thaliana); assay: as above
binding [1],binding [2],binding [3],binding [4],Binder
binds,binds,–,–,"cLUC-AGB1 (protein, UniProt P49177 1-377) MSVSELKERHAVATETVNNLRDQLRQRRLQLLDTDVARYSAAQGRTRVSFGATDLVCCRTLQGHTGKVYSLDWTPERNRIVSASQDGRLIVWNALTSQKTHAIKLPCAWVMTCAFSPNGQSVACGGLDSVCSIFSLSSTADKDGTVPVSRMLTGHRGYVSCCQYVPNEDAHLITSSGDQTCILWDVTTGLKTSVFGGEFQSGHTADVLSVSISGSNPNWFISGSCDSTARLWDTRAASRAVRTFHGHEGDVNTVKFFPDGYRFGTGSDDGTCRLYDIRTGHQLQVYQPHGDGENGPVTSIAFSVSGRLLFAGYASNNTCYVWDTLLGEVVLDLGLQQDSHRNRISCLGLSADGSALCTGSWDSNLKIWAFGGHRRVI"
–,–,binds,binds,"AGB1 (purified, pull-down) (natural protein, Arabidopsis thaliana, UniProt P49177 1-377, looked up, AGB1, G protein beta subunit, Arabidopsis thaliana, At4G34460; source: E. coli, purified (glutathione agarose beads)) MSVSELKERHAVATETVNNLRDQLRQRRLQLLDTDVARYSAAQGRTRVSFGATDLVCCRTLQGHTGKVYSLDWTPERNRIVSASQDGRLIVWNALTSQKTHAIKLPCAWVMTCAFSPNGQSVACGGLDSVCSIFSLSSTADKDGTVPVSRMLTGHRGYVSCCQYVPNEDAHLITSSGDQTCILWDVTTGLKTSVFGGEFQSGHTADVLSVSISGSNPNWFISGSCDSTARLWDTRAASRAVRTFHGHEGDVNTVKFFPDGYRFGTGSDDGTCRLYDIRTGHQLQVYQPHGDGENGPVTSIAFSVSGRLLFAGYASNNTCYVWDTLLGEVVLDLGLQQDSHRNRISCLGLSADGSALCTGSWDSNLKIWAFGGHRRVI"
binds weakly,binds,–,–,"cLUC-SSP (protein, UniProt Q7XJT7 1-465) MGCCYSLSSTVDPVQDHTTDASSEPRNGGGEDPPLTKFSFSALKTATNHFSPENIVSDQTSDVVFKGRLQNGGFVAIKRFNNMAWSDPKLFLEEAQRVGKLRHKRLVNLIGYCCDGDKRFLVADFMANDTLAKRLFQRKYQTMDWSIRLRVAYFVAEALDYCNTAGFASYNNLSAYKVLFDEDGDACLSCFGLMKEINNDQITTGSVNPENVIYRFGTVLVNLLSGKQIPPSHAPEMIHRKNVFKLMDPYLKGKFSIDEANVVYKLASQCLKYEGQESPNTKEIVATLETLQTRTEAPSYEVVEMTNQEKDASSSSNLSPLGEACLRMDLASIHSILVLAGYDDDKDIIELSFEEWIQEVKELQDVRRNGDRAFVEQDFKTAIACYSQFVEERSLVYPSVYARRSLSYLFCDEPEKALLDGMHAQGVFPDWPTAFYLQSVALAKLDMNTDSADTLKEAALLEVKK"
–,–,binds,binds,"SSP (purified, pull-down) (protein, UniProt Q7XJT7 1-465) MGCCYSLSSTVDPVQDHTTDASSEPRNGGGEDPPLTKFSFSALKTATNHFSPENIVSDQTSDVVFKGRLQNGGFVAIKRFNNMAWSDPKLFLEEAQRVGKLRHKRLVNLIGYCCDGDKRFLVADFMANDTLAKRLFQRKYQTMDWSIRLRVAYFVAEALDYCNTAGFASYNNLSAYKVLFDEDGDACLSCFGLMKEINNDQITTGSVNPENVIYRFGTVLVNLLSGKQIPPSHAPEMIHRKNVFKLMDPYLKGKFSIDEANVVYKLASQCLKYEGQESPNTKEIVATLETLQTRTEAPSYEVVEMTNQEKDASSSSNLSPLGEACLRMDLASIHSILVLAGYDDDKDIIELSFEEWIQEVKELQDVRRNGDRAFVEQDFKTAIACYSQFVEERSLVYPSVYARRSLSYLFCDEPEKALLDGMHAQGVFPDWPTAFYLQSVALAKLDMNTDSADTLKEAALLEVKK"
